Test results as given in article PMC10127582.
These are yes or no findings as the source states them, for the method shown. Binding can be weak; no strength is given.

Molecular target: T1, BODIPY-PodJ_(CC4-6) (C. crescentus) (UniProt Q9ZG88)
T1 sequence (chain, BODIPY FL N-(2-aminoethyl)maleimide on the cysteine added at the N terminus): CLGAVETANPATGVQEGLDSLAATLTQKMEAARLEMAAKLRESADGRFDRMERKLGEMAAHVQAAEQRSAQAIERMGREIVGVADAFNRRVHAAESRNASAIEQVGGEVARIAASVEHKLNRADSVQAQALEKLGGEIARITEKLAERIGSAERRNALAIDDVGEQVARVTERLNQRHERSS
Experiment: fluorescence polarisation; 100 nM BODIPY-labelled PodJ variant mixed with PopZ (0 to 16 μM in the methods; 16 μM in the results; 10 μM in the legend), room temperature, 45 min (methods) or 2 h (results); excitation 470 nm, emission 530 nm; bovine serum albumin as negative control; both purified

binding: binds
Substance: PopZ (C. crescentus)
